From the supplement of paper PMC10849652
Some of the results follow.

By UniProt entry, the sequences of proteins in these tests, tags left out. Where a name states a change or a piece, a line headed by the entry shows the natural chain unless it says otherwise.
UniProt Q15637: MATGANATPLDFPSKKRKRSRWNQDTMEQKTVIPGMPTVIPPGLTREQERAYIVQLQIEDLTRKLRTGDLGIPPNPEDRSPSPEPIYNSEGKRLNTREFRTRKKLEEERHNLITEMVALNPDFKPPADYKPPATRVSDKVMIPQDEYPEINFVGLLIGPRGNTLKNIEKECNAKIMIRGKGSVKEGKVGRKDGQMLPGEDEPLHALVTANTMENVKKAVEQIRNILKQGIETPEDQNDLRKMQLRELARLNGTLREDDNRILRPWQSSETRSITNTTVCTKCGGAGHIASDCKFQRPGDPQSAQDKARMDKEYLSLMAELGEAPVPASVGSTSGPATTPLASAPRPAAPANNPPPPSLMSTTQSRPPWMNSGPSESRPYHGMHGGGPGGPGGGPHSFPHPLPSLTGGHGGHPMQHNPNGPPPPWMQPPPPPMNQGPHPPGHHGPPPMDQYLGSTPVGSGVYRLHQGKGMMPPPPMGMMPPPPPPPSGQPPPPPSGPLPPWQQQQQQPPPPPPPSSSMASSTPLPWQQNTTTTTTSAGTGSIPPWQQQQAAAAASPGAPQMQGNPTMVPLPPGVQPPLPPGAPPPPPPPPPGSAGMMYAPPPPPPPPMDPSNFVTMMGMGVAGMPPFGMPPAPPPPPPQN
UniProt Q9UP95: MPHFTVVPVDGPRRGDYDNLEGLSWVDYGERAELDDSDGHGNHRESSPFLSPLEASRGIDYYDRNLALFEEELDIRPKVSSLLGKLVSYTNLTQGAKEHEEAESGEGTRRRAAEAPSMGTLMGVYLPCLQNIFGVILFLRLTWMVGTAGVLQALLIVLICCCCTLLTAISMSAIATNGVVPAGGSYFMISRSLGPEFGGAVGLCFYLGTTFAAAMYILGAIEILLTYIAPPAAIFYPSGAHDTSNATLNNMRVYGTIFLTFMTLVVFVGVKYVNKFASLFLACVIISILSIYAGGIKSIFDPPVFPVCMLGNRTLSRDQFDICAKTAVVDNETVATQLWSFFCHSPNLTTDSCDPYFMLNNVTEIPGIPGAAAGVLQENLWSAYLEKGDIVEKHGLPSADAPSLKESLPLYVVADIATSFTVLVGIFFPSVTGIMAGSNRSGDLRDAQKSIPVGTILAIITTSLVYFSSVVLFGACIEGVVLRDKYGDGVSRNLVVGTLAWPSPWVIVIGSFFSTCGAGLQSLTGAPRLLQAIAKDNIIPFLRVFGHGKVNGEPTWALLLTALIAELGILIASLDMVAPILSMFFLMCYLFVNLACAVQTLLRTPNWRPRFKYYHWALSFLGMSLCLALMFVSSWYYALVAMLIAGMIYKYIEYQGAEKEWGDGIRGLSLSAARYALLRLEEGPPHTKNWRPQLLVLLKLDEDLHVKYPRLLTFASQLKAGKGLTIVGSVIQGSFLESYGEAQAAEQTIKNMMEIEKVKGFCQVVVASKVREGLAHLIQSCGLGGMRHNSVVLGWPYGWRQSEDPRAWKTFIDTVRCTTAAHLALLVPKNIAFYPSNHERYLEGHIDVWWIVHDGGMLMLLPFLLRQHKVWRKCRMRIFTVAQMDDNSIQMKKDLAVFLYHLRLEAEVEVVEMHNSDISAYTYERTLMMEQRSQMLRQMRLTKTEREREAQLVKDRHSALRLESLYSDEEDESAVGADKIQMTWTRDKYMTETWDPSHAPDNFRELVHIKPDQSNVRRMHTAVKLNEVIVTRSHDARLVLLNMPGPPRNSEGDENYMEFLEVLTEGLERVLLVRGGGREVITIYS
UniProt O15047, whole entry, looked up: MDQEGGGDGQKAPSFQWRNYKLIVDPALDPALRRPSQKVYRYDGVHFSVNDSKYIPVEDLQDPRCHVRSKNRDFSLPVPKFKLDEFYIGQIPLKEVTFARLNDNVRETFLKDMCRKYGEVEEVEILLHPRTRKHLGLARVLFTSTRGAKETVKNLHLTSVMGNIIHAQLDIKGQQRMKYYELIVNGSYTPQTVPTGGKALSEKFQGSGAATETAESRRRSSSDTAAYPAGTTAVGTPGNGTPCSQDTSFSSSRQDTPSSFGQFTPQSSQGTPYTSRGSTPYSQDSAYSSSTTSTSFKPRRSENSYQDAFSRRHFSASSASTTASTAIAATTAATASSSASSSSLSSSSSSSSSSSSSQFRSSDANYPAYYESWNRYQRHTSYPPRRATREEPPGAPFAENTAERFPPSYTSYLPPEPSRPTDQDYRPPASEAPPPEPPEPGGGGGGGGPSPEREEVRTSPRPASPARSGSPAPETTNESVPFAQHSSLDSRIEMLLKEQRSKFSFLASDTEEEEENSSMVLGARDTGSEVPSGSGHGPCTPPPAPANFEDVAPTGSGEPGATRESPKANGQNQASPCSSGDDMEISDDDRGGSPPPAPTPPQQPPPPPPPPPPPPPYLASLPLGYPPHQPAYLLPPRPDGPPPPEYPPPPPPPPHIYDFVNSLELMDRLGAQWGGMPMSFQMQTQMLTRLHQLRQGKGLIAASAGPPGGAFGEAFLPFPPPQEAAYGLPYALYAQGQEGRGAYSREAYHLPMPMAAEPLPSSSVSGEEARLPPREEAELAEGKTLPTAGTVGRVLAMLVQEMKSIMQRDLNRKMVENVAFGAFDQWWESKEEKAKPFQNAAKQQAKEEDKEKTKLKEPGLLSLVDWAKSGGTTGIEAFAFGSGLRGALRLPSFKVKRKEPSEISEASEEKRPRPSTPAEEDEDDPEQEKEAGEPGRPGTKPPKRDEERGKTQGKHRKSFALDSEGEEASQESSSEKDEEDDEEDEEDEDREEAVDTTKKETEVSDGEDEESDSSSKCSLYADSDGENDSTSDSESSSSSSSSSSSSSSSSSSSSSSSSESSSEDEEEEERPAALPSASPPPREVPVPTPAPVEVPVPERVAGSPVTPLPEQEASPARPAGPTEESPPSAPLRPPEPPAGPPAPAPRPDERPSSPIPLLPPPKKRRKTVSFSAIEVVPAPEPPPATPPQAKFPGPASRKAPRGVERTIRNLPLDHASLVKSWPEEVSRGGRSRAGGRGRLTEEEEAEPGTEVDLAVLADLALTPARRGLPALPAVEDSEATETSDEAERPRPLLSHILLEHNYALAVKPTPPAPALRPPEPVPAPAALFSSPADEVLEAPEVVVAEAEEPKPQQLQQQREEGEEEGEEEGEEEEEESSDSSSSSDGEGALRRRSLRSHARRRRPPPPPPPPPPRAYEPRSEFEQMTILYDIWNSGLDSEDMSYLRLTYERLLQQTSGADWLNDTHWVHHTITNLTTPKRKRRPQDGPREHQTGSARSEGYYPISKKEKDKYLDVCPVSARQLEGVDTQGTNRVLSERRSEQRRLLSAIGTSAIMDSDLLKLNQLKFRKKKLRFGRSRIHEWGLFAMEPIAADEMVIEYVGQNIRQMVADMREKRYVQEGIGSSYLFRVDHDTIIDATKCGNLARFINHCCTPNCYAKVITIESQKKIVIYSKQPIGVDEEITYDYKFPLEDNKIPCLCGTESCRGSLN
UniProt Q9UJC5: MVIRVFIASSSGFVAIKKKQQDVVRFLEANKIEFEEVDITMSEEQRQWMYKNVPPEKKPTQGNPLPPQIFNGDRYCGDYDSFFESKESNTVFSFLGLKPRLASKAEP
UniProt Q8TBC3: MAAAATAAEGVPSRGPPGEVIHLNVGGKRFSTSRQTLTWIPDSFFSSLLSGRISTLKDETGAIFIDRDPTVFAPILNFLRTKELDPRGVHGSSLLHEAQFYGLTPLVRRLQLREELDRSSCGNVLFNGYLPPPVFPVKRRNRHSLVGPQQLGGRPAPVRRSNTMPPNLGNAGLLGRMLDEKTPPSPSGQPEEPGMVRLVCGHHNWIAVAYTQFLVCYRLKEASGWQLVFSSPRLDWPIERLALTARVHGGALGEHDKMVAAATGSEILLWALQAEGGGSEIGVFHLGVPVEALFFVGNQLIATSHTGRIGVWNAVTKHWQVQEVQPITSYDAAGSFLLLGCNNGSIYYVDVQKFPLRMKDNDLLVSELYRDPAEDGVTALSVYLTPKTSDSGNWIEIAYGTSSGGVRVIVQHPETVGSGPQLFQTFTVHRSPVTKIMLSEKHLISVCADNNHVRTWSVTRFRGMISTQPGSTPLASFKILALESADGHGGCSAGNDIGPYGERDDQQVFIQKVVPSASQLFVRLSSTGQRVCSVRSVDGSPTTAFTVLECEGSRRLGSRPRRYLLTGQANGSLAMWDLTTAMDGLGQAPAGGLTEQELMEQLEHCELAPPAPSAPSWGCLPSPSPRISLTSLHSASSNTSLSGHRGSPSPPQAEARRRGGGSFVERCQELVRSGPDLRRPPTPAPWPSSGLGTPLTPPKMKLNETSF
UniProt Q149N8: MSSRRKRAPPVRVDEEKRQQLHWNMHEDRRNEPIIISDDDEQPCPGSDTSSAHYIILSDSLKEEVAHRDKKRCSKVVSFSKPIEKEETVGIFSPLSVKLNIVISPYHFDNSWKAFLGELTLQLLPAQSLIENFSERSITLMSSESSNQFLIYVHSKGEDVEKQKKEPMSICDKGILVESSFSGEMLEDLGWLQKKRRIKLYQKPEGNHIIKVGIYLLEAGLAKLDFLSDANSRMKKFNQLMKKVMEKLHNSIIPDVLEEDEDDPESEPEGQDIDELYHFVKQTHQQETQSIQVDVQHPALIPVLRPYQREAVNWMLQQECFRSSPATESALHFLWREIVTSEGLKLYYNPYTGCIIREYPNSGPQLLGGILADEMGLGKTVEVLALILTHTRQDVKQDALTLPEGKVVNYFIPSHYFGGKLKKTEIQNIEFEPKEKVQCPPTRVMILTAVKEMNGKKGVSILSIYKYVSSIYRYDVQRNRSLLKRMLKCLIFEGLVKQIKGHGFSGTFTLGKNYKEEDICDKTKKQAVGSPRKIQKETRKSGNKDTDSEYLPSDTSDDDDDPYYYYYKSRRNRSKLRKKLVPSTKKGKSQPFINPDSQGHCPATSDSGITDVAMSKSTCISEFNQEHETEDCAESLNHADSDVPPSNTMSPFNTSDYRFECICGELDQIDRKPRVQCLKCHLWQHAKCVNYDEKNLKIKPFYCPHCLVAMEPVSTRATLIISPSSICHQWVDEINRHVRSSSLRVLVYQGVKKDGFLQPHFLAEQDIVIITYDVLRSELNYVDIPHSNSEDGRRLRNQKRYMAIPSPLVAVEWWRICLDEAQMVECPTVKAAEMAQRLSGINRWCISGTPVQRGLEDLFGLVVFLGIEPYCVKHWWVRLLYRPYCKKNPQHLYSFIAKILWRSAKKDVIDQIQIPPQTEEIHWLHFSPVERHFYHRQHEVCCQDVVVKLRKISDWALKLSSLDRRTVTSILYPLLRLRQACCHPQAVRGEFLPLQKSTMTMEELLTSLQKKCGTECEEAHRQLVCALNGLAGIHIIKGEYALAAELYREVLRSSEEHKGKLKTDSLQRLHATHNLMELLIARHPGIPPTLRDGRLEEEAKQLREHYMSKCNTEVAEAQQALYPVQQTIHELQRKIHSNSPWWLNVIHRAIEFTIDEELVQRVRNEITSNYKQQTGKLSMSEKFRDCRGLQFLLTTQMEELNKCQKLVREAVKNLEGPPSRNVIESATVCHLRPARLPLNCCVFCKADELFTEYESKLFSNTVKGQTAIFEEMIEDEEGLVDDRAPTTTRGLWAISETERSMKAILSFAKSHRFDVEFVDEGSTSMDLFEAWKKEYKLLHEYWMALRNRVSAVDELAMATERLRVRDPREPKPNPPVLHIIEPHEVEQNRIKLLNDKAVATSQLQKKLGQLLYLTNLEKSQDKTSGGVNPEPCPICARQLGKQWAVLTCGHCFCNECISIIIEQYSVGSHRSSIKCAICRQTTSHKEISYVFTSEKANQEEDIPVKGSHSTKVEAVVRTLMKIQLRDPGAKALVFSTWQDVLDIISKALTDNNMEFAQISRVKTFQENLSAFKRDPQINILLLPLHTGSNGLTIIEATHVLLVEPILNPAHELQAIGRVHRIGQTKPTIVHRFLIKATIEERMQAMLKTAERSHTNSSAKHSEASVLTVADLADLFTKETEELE
UniProt Q6P4A7: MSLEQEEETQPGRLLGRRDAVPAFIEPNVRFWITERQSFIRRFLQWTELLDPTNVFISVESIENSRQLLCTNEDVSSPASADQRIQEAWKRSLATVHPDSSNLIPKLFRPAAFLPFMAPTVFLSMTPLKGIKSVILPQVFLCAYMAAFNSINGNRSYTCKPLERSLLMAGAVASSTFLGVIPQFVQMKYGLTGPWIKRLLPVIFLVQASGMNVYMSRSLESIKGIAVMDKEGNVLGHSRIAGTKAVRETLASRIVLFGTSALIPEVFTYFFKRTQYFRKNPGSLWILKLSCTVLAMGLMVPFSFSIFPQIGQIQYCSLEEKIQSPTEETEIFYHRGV
UniProt Q86XK3: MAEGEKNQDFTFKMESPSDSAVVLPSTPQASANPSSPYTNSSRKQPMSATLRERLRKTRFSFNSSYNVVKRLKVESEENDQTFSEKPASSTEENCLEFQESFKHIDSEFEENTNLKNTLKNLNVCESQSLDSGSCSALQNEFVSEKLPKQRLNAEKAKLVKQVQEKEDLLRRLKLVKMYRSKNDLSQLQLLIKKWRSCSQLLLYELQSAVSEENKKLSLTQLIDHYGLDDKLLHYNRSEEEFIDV

Tests used:
Assay in all cases: log2 fold change, soluble protein after heating vs DMSO (PISA); higher = thermal stabilisation; K562 lysate, 10 uM; active = over 0.2 and 3.5 SD of the protein, either way, in both replicates (recomputed)
[1] = compound: C#Cc1cccc(Nc2ncnc3cc(OCCOC)c(OCCOC)cc23)c1 [erlotinib]
Summary of the method: (§1)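 Quantification was by TMTpro 16plex LC-MS/MS with equalised channel sums, applied to the supernatant after 21,000xg for 90 min. Samples were crude K562 extract at 1 mg/mL protein in PBS pH 7.4 with 1 mM MgCl2, treated with 10 μM compound for 30 min, heated for 3 min across 48°C-58°C, pooled and brought to 0.5% NP-40 at 4°C. Values are log-two fold changes in thermal stability relative to solvent controls, from duplicates.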

[2] = compound: C/C(=N\NC(=O)C1=CC(=CC=C1)S(=O)(=O)N2CCOCC2)/C3=C(C=CC(=C3)Cl)O
Summary of the method: as §1

[3] = compound: C1=CC(=CC=C1C2=NC3=C(N2)C=C(C=C3)C(=O)N)OC4=CC=C(C=C4)Cl
Summary of the method: as §1

[4] = compound: C1=CC2=C(C=CC(=C2)/C=C\3/C(=O)NC(=NCC4=CC=CS4)S3)N=C1
Summary of the method: as §1

[5] = compound: C1=CC2=NC=CN=C2C=C1/C=C/3\C(=O)NC(=O)S3
Summary of the method: as §1

[6] = compound: C1=CC=C(C=C1)C2=NC(=C(N2)C3=CC=NC=C3)C4=CC(=C(C=C4)Cl)O
Summary of the method: as §1

[7] = compound: C1=CC=C2C(=C1)C3=NNC4=CC=CC(=C43)C2=O
Summary of the method: as §1

[8] = compound: C1CCN(C1)C(=O)NC2=CC=CC(=C2)NC3=NC=C(C(=N3)NCCC4=CN=CN4)Br
Summary of the method: as §1

[9] = compound: C1CN(CCC1(CC2=CC=C(C=C2)Cl)N)C3=NC=NC4=C3C=CN4
Summary of the method: as §1

[10] = compound: C1COCCN1CCN2C3=CC=CC=C3N=C2NC(=O)C4=CC(=CC=C4)[N+](=O)[O-] [IRAK-1-4 Inhibitor I]
Summary of the method: as §1

[11] = compound: C=CC(=O)N1CCC[C@@H](n2nc(-c3ccc(Oc4ccccc4)cc3)c3c(N)ncnc32)C1 [ibrutinib]
Summary of the method: as §1

[12] = compound: CC(=O)c1cnc2ccc(-c3cc(Cl)c(O)c(Cl)c3)nc2c1N[C@H]1CC[C@H](CN(C)C)CC1
Summary of the method: as §1

[13] = compound: CC(C)(C)Cn1c(N)nc2ccc(-c3[nH]c(C(C)(C)C)nc3-c3ccc(F)cc3)nc21 [ralimetinib]
Summary of the method: as §1

[14] = compound: CC(C)(O)CC(=O)NCCn1ccc2ncnc(Nc3ccc(Oc4cccc(C(F)(F)F)c4)c(Cl)c3)c21
Summary of the method: as §1

[15] = compound: CC(C)C1=C2N=C(C=C(N2N=C1)NCC3=CC=CC=C3)NCCCCCCN
Summary of the method: as §1

[16] = compound: CC1=C(C(CC(=O)N1)C2=CC=C(C=C2)C(F)(F)F)C(=O)NC3=C(C=C4C(=C3)C=NN4)F
Summary of the method: as §1

[17] = compound: CC1=C(C2=C(C=C1)C(=O)C3=CC=CC=C3N2CCCN)C
Summary of the method: as §1

[18] = compound: CC1=C(C=C(C=C1)NC(=O)C2=CC(=CC=C2)C(C)(C)C#N)NC3=CC4=C(C=C3)N=CN(C4=O)C
Summary of the method: as §1

[19] = compound: CC1=C(C=C(C=C1)NC(=O)C2=CC(=CC=C2)N(C)C)NC(=O)C3=CC=C(C=C3)O
Summary of the method: as §1

[20] = compound: CC1=CC=C(C=C1)SC2=C3C=C(SC3=CN=C2)C(=O)N
Summary of the method: as §1

Measured: log2 fold change

SERPINB1 (UniProt P30740)
inactive: [1] 0.025 | [2] -0.04 | [3] 0.016 | [4] 0 | [5] -0.013 | [6] 0.004 | [7] -0.003 | [8] -0.005 | [9] 0.018 | [10] 0.003 | [11] 0.015 | [12] -0.015 | [13] -0.013 | [14] -0.031 | [15] -0.007 | [16] -0.014 | [17] 0.015 | [18] -0.008 | [19] -0.013 | [20] 0.007

SF1 isoform 5 (UniProt Q15637)
inactive: [1] -0.018 | [2] -0.023 | [3] 0.036 | [4] -0.023 | [5] 0.007 | [6] -0.077 | [7] -0.007 | [8] -0.009 | [9] -0.024 | [10] 0.007 | [11] 0.015 | [12] 0.003 | [13] -0.014 | [14] 0 | [15] -0.015 | [16] -0.003 | [17] 0.016 | [18] -0.014 | [19] -0.029 | [20] -0.029

SLC12A4 (UniProt Q9UP95)
inactive: [1] -0.029 | [2] 0 | [3] -0.029 | [4] 0.079 | [5] 0.035 | [6] -0.041 | [7] -0.239 | [8] -0.078 | [9] 0.015 | [10] -0.044 | [11] -0.045 | [12] 0.001 | [13] 0.01 | [14] 0.027 | [15] -0.019 | [16] -0.013 | [17] 0.073 | [18] 0.032 | [19] -0.012 | [20] 0.063

SIRT1 (UniProt Q96EB6)
inactive: [1] 0.046 | [2] -0.029 | [3] 0.017 | [4] 0.023 | [5] -0.019 | [6] 0 | [7] -0.001 | [8] -0.012 | [9] 0.008 | [10] -0.018 | [11] 0.009 | [12] 0.009 | [13] 0.007 | [14] -0.011 | [15] 0.011 | [16] -0.018 | [17] 0.003 | [18] -0.011 | [19] -0.006 | [20] 0.013

SETD1A (UniProt O15047)
inactive: [1] 0.012 | [2] 0.024 | [3] 0.081 | [4] -0.043 | [5] 0.002 | [6] 0.021 | [7] 0.01 | [8] 0.018 | [9] 0 | [10] 0.01 | [11] 0.034 | [12] 0.042 | [13] 0.006 | [14] -0.036 | [15] 0.011 | [16] 0.013 | [17] -0.051 | [18] -0.019 | [19] 0.029 | [20] -0.017

SH3BGRL2 (UniProt Q9UJC5)
inactive: [1] 0.007 | [2] -0.109 | [3] 0.035 | [4] 0.045 | [5] -0.049 | [6] 0.01 | [7] 0.018 | [8] -0.087 | [9] 0.034 | [10] 0.007 | [11] -0.014 | [12] 0.027 | [13] 0.006 | [14] -0.014 | [15] 0.035 | [16] 0.03 | [17] -0.004 | [18] 0.036 | [19] -0.072 | [20] 0.053

SF3A1 (UniProt Q15459)
inactive: [1] -0.027 | [2] 0.013 | [3] 0.023 | [4] 0.002 | [5] -0.025 | [6] 0 | [7] -0.015 | [8] 0.008 | [9] -0.001 | [10] 0 | [11] 0.006 | [12] -0.006 | [13] -0.015 | [14] -0.019 | [15] 0.015 | [16] 0.012 | [17] 0.005 | [18] 0.01 | [19] -0.011 | [20] -0.001

SH3GLB2 (UniProt Q9NR46)
inactive: [1] -0.06 | [2] 0.039 | [3] 0.009 | [4] 0.006 | [5] -0.025 | [6] -0.035 | [7] -0.025 | [8] -0.056 | [9] -0.042 | [10] -0.017 | [11] 0.011 | [12] 0.033 | [13] 0.057 | [14] 0.065 | [15] 0.02 | [16] -0.001 | [17] 0.02 | [18] -0.04 | [19] -0.016 | [20] -0.008

SGO1 (UniProt Q5FBB7)
inactive: [1] 0.057 | [2] -0.075 | [3] -0.011 | [4] 0.024 | [5] -0.024 | [6] -0.004 | [7] -0.044 | [8] 0.007 | [9] 0.032 | [10] -0.005 | [11] -0.033 | [12] 0.03 | [13] -0.059 | [14] 0.033 | [15] 0.047 | [16] -0.059 | [17] 0.012 | [18] -0.05 | [19] 0 | [20] 0.036

SHKBP1 (UniProt Q8TBC3)
inactive: [1] -0.005 | [2] -0.064 | [3] 0.058 | [4] 0.004 | [5] 0.011 | [6] 0.01 | [7] -0.018 | [8] 0.076 | [9] 0.189 | [10] 0.022 | [11] 0.064 | [12] -0.02 | [13] 0.063 | [14] 0.006 | [15] 0.067 | [16] -0.005 | [17] -0.051 | [18] 0.038 | [19] 0.052 | [20] 0.004

SHMT2 (UniProt P34897)
inactive: [1] 0.001 | [2] 0.044 | [3] -0.005 | [4] -0.01 | [5] 0.012 | [6] -0.007 | [7] 0.02 | [8] 0.012 | [9] -0.01 | [10] 0.025 | [11] 0.026 | [12] 0.016 | [13] 0.006 | [14] -0.012 | [15] -0.019 | [16] -0.019 | [17] -0.018 | [18] 0.016 | [19] -0.023 | [20] 0.008

SHPRH (UniProt Q149N8)
inactive: [1] 0.033 | [2] 0.042 | [3] -0.035 | [4] -0.162 | [5] 0.026 | [6] 0.022 | [7] 0.05 | [8] -0.17 | [9] 0.013 | [10] 0.094 | [11] 0.053 | [12] 0.09 | [13] 0 | [14] -0.147 | [15] 0.097 | [16] -0.002 | [17] 0.032 | [18] -0.034 | [19] -0.014 | [20] 0.027

SFXN4 (UniProt Q6P4A7)
inactive: [1] 0.01 | [2] 0.036 | [3] 0.064 | [4] 0.056 | [5] -0.045 | [6] -0.012 | [7] 0.075 | [8] -0.02 | [9] 0.05 | [10] 0.033 | [11] 0.046 | [12] 0.027 | [13] 0.044 | [14] -0.031 | [15] -0.003 | [16] -0.027 | [17] -0.06 | [18] 0.025 | [19] 0.021 | [20] 0.075

SLC19A1 (UniProt P41440)
inactive: [1] -0.032 | [2] -0.024 | [3] 0.049 | [4] -0.04 | [5] -0.025 | [6] -0.001 | [7] -0.017 | [8] -0.023 | [9] 0.023 | [10] 0.033 | [11] 0.049 | [12] 0.013 | [13] -0.004 | [14] -0.054 | [15] -0.019 | [16] 0.019 | [17] -0.044 | [18] 0.009 | [19] 0.004 | [20] -0.003

Looked up one by one from the entries so far, two records:
SHPRH (UniProt Q149N8)
inactive: [1] 0.033 | [2] 0.042 | [3] -0.035 | [4] -0.162 | [5] 0.026 | [6] 0.022 | [7] 0.05 | [8] -0.17 | [9] 0.013 | [10] 0.094 | [11] 0.053 | [12] 0.09 | [13] 0 | [14] -0.147 | [15] 0.097 | [16] -0.002 | [17] 0.032 | [18] -0.034 | [19] -0.014 | [20] 0.027

SLC19A1 (UniProt P41440)
inactive: [1] -0.032 | [2] -0.024 | [3] 0.049 | [4] -0.04 | [5] -0.025 | [6] -0.001 | [7] -0.017 | [8] -0.023 | [9] 0.023 | [10] 0.033 | [11] 0.049 | [12] 0.013 | [13] -0.004 | [14] -0.054 | [15] -0.019 | [16] 0.019 | [17] -0.044 | [18] 0.009 | [19] 0.004 | [20] -0.003

Next results follow:

SFR1 isoform 2 (UniProt Q86XK3)
inactive: [1] -0.009 | [2] -0.019 | [3] 0.067 | [4] 0.015 | [5] -0.051 | [6] 0.018 | [7] 0.025 | [8] 0.04 | [9] 0.01 | [10] 0.001 | [11] 0.023 | [12] -0.006 | [13] 0.003 | [14] -0.012 | [15] -0.005 | [16] -0.006 | [17] 0.041 | [18] 0.026 | [19] 0.06 | [20] 0.016

SGTB (UniProt Q96EQ0)
inactive: [1] -0.072 | [2] -0.008 | [3] 0.003 | [4] 0.024 | [5] 0.014 | [6] 0.003 | [7] -0.01 | [8] 0.074 | [9] 0.039 | [10] -0.016 | [11] 0.034 | [12] 0.01 | [13] -0.018 | [14] -0.002 | [15] 0.036 | [16] 0.001 | [17] 0.031 | [18] 0.026 | [19] -0.028 | [20] -0.021
